# Values from PubChem BioAssay AID652243 (Drosophila RNAi Screening Center, 2013)
# Screen: 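Fly genes required for human androgen receptor driven transcription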 (primary screen)
# Cell system: Drosophila S2R+ cells
# Knock-down reagent: long dsRNA against Drosophila genes
# Timing: 72 h (48 h, then 24 h hormone)
# Challenge: synthetic androgen R1881 at 10 nM for 24 h
# Detection: 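Per-well raw luminescence of the androgen-driven firefly reporter and of the Renilla control, two replicates each, without normalisation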
# Direction: firefly reporter light: higher = more light from androgen-responsive reporter; Renilla control light: higher = more constitutive control signal (cell number, transfection)
# Rule for the call: 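Hit when the log firefly-to-Renilla ratio dropped or increased by a fixed fold versus the mean of GFP or LacZ controls across duplicate plates; lowering cut given as 1.5 and as 3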
# Calls: active = hit: reporter lowered or raised; inactive = no hit
# The screen tested about 24,000 reagents; shown is a random part of those that have a named target and a result. Of all reagents, 246 (1%) are marked active. 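Plates not normalised; calls are printed but the firefly/Renilla ratio behind them is not deposited; fold cut for lowering reported inconsistently.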 Raw values are not corrected between plates. Reagents against one gene are numbered here. No sequences are given here. The record does not give: the amount of reagent.
gene knocked down,dsRNA no.,"firefly reporter light, replicate 1","firefly reporter light, replicate 2","Renilla control light, replicate 1","Renilla control light, replicate 2",Outcome
Uros1 (GeneID 31817),1,1.17e5,1.05e5,7.07e5,7.22e5,inactive
Uros1 (GeneID 31817),2,7.14e5,6.73e5,8.54e5,8.54e5,inactive
CHKov1 (GeneID 43067),1,1.62e5,1.95e5,3.97e5,6.50e5,inactive
CHKov1 (GeneID 43067),2,2.24e5,2.65e5,6.39e5,6.08e5,inactive
CHKov1 (GeneID 43067),3,1.52e5,2.06e5,1.83e6,2.25e6,inactive
CHKov1 (GeneID 43067),4,9.87e5,1.16e6,1.50e6,1.31e6,inactive
CHKov1 (GeneID 43067),5,6.64e5,8.18e5,1.47e6,1.52e6,inactive
msn (GeneID 44030),1,1.63e5,1.21e5,4.05e5,4.06e5,inactive
msn (GeneID 44030),2,38856,70910,9.77e5,1.04e6,inactive
msn (GeneID 44030),3,4.97e5,4.00e5,5.36e5,4.81e5,inactive
msn (GeneID 44030),4,,,,,inactive
msn (GeneID 44030),5,,,,,inactive

Next part, starting with the last 2 of the part before.
gene knocked down,dsRNA no.,"firefly reporter light, replicate 1","firefly reporter light, replicate 2","Renilla control light, replicate 1","Renilla control light, replicate 2",Outcome
msn (GeneID 44030),4,,,,,inactive
msn (GeneID 44030),5,,,,,inactive
CG15641 (GeneID 32477),1,3.63e5,3.56e5,3.43e6,3.42e6,inactive
Rpn9 (GeneID 42802),1,32722,46785,2.65e5,2.58e5,inactive
Rpn9 (GeneID 42802),2,2.20e5,2.47e5,4.31e5,4.47e5,inactive
CG13203 (GeneID 36229),1,2.62e5,2.32e5,1.91e6,1.76e6,inactive
CG13203 (GeneID 36229),2,3.80e5,3.02e5,6.39e5,9.13e5,inactive
vri (GeneID 33759),1,7.11e5,9.71e5,9.53e5,1.39e6,inactive
vri (GeneID 33759),2,2.98e5,2.91e5,7.56e5,6.37e5,inactive
Gr22f (GeneID 117349),1,2.51e5,2.56e5,6.10e5,4.42e5,inactive
Gr22f (GeneID 117349),2,3.45e5,3.43e5,8.72e5,7.88e5,inactive
CG13921 (GeneID 38222),1,7.55e5,7.88e5,1.70e6,1.82e6,inactive
CG13921 (GeneID 38222),2,7.50e5,9.18e5,6.87e5,7.21e5,inactive
CG5500 (GeneID 43233),1,2.23e5,2.03e5,2.33e6,3.26e6,inactive
CG5500 (GeneID 43233),2,4.79e5,2.84e5,6.81e5,6.81e5,inactive
